According to article PMC4945746:
No constants are given. Whether binding was seen depends on the method and setting. Binding seen in cells or lysates may run through a third protein. Some binding calls cover weakened binding; strength is not graded here.

The chains behind the UniProt entries cited, without tags or fusion partners.
UniProt Q14209: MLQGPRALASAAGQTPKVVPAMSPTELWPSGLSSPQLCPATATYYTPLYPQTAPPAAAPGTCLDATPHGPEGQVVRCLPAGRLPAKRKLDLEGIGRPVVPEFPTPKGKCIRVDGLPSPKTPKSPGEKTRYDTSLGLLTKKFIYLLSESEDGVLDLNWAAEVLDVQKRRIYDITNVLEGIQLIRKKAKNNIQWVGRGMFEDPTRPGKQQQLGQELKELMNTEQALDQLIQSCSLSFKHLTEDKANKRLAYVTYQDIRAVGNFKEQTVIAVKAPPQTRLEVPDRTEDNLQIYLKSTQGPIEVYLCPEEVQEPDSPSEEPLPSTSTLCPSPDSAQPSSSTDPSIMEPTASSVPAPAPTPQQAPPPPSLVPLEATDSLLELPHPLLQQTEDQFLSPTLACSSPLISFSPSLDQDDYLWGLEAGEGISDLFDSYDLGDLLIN

Experiments:
Experiment in all cases: co-IP; protein extracts (0.2 mg) of HepG2 or Huh7 cells treated with siANCCA or siCtrl, incubated with anti-E2F2, anti-ERO1L or anti-G3BP2 antibody overnight at 4 °C, protein A/G-Sepharose, washed three times with lysis buffer (0.5% deoxycholate, 0.2% SDS, 1% Triton X-100, 5 mM EDTA); blot with ANCCA/PRO2000 antiserum
[1] = target: E2F2 (human (endogenous in HepG2 and Huh7)) (UniProt Q14209)
[2] = target: T1, Ras-GTPase-activating protein-SH3-domain-binding protein 2 (G3BP2) (human (endogenous in HepG2)) (UniProt Q9UN86)
T1 sequence: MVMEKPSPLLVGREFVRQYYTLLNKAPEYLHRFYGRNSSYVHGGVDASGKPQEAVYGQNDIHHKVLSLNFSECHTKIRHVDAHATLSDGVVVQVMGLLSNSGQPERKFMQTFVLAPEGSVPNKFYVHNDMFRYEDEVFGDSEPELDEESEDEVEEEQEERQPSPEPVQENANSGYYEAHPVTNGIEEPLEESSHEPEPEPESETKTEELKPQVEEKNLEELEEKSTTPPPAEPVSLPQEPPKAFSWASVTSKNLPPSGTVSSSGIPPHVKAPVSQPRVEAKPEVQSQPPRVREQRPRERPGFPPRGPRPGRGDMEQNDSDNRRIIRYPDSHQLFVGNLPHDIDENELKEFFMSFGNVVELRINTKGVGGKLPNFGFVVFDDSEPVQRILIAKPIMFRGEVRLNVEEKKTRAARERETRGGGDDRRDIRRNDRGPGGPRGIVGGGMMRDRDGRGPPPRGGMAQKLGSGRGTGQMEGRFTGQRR

[3] = target: T2, endoplasmic reticulum oxidoreductin 1 (ERO1L) (human (endogenous in HepG2)) (UniProt Q96HE7)
T2 sequence: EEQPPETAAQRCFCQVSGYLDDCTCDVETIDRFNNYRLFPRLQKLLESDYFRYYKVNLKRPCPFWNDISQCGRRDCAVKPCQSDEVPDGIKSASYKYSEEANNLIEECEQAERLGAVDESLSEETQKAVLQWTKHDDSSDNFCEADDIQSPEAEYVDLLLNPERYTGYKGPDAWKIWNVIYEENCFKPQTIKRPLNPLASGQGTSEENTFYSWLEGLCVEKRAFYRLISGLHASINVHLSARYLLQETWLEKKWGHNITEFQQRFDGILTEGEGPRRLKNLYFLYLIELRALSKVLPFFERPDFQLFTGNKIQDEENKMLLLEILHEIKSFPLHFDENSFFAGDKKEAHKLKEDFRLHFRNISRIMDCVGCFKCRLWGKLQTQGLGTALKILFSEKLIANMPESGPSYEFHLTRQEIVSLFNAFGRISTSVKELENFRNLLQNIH

binding [1]: binds
binding [2]: binds
binding [3]: binds
B1: AAA nuclear coregulator cancer-associated protein (ANCCA/PRO2000) (protein, UniProt Q6PL18 1-1390)
chain: MVVLRSSLELHNHSAASATGSLDLSSDFLSLEHIGRRRLRSAGAAQKKPAATTAKAGDGSSVKEVETYHRTRALRSLRKDAQNSSDSSFEKNVEITEQLANGRHFTRQLARQQADKKKEEHREDKVIPVTRSLRARNIVQSTEHLHEDNGDVEVRRSCRIRSRYSGVNQSMLFDKLITNTAEAVLQKMDDMKKMRRQRMRELEDLGVFNETEESNLNMYTRGKQKDIQRTDEETTDNQEGSVESSEEGEDQEHEDDGEDEDDEDDDDDDDDDDDDDDEDDEDEEDGEEENQKRYYLRQRKATVYYQAPLEKPRHQRKPNIFYSGPASPARPRYRLSSAGPRSPYCKRMNRRRHAIHSSDSTSSSSSEDEQHFERRRKRSRNRAINRCLPLNFRKDELKGIYKDRMKIGASLADVDPMQLDSSVRFDSVGGLSNHIAALKEMVVFPLLYPEVFEKFKIQPPRGCLFYGPPGTGKTLVARALANECSQGDKRVAFFMRKGADCLSKWVGESERQLRLLFDQAYQMRPSIIFFDEIDGLAPVRSSRQDQIHSSIVSTLLALMDGLDSRGEIVVIGATNRLDSIDPALRRPGRFDREFLFSLPDKEARKEILKIHTRDWNPKPLDTFLEELAENCVGYCGADIKSICAEAALCALRRRYPQIYTTSEKLQLDLSSINISAKDFEVAMQKMIPASQRAVTSPGQALSTVVKPLLQNTVDKILEALQRVFPHAEFRTNKTLDSDISCPLLESDLAYSDDDVPSVYENGLSQKSSHKAKDNFNFLHLNRNACYQPMSFRPRILIVGEPGFGQGSHLAPAVIHALEKFTVYTLDIPVLFGVSTTSPEETCAQVIREAKRTAPSIVYVPHIHVWWEIVGPTLKATFTTLLQNIPSFAPVLLLATSDKPHSALPEEVQELFIRDYGEIFNVQLPDKEERTKFFEDLILKQAAKPPISKKKAVLQALEVLPVAPPPEPRSLTAEEVKRLEEQEEDTFRELRIFLRNVTHRLAIDKRFRVFTKPVDPDEVPDYVTVIKQPMDLSSVISKIDLHKYLTVKDYLRDIDLICSNALEYNPDRDPGDRLIRHRACALRDTAYAIIKEELDEDFEQLCEEIQESRKKRGCSSSKYAPSYYHVMPKQNSTLVGDKRSDPEQNEKLKTPSTPVACSTPAQLKRKIRKKSNWYLGTIKKRRKISQAKDDSQNAIDHKIESDTEETQDTSVDHNETGNTGESSVEENEKQQNASESKLELRNNSNTCNIENELEDSRKTTACTELRDKIACNGDASSSQIIHISDENEGKEMCVLRMTRARRSQVEQQQLITVEKALAILSQPTPSLVVDHERLKNLLKTVVKKSQNYNIFQLENLYAVISQCIYRHRKDHDKTSLIQKMEQEVENFSCSR
